In the supplement of paper PMC10849652:
The list shows a part of the results.

Protein sequences, listed by entry. Tags and fused reporters are not part of them. Lines headed by an entry give the natural chain unless they say otherwise; changes in a name come on top.
UniProt P47985: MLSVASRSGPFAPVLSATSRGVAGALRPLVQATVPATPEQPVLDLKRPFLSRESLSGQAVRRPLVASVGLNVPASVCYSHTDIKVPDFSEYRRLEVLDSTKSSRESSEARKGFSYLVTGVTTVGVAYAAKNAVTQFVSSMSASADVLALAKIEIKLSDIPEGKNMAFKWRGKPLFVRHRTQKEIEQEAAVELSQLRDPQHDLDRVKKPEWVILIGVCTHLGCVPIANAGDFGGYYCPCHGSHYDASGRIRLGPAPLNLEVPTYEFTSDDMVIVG
UniProt Q92995: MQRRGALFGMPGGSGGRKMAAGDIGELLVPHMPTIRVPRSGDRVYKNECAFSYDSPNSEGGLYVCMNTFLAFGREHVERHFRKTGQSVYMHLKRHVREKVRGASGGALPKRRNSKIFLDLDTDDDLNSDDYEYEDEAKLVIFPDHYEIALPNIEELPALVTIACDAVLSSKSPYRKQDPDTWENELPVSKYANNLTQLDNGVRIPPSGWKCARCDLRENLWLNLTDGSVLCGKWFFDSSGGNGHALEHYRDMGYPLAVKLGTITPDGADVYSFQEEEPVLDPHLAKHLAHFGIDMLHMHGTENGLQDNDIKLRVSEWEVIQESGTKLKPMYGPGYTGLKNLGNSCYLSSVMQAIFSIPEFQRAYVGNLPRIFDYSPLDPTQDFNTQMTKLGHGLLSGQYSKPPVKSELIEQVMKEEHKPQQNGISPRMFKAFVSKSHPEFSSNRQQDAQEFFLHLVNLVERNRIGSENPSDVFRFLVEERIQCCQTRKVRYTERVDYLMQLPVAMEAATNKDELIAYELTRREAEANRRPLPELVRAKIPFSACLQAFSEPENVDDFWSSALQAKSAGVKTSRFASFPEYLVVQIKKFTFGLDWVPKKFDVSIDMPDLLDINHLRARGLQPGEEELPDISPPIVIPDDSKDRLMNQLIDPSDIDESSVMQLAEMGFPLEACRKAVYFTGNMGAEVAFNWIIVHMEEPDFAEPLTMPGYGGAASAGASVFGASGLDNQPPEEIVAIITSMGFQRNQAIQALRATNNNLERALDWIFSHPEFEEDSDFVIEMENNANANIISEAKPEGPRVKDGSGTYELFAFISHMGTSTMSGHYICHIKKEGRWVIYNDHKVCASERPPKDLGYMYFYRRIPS
UniProt Q8IX04: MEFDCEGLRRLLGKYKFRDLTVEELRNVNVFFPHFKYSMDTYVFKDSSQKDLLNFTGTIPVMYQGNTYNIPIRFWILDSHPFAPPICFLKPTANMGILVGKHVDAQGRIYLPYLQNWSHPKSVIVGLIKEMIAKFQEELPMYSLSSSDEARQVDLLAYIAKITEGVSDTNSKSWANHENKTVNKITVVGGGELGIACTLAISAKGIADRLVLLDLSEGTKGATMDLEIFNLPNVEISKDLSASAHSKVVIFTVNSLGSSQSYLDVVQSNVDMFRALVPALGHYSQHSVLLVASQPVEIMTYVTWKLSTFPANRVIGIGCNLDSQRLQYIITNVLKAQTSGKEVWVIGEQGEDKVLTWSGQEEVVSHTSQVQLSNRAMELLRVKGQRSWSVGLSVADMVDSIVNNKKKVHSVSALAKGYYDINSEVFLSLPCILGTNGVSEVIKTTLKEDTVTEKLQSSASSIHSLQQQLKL
UniProt P08670, whole entry, looked up: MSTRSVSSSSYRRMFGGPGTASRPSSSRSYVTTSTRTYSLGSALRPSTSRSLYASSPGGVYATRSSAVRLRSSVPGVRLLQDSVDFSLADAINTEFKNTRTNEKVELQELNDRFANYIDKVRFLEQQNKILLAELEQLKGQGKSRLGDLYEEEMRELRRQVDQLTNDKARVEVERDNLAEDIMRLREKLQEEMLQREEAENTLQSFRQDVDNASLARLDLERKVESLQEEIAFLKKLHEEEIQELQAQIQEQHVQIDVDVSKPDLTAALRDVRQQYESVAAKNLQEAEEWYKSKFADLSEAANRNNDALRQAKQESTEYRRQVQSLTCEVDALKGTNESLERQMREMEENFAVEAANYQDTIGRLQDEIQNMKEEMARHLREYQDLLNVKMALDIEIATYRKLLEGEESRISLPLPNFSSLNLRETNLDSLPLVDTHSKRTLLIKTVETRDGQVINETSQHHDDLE
UniProt Q9P2Y5: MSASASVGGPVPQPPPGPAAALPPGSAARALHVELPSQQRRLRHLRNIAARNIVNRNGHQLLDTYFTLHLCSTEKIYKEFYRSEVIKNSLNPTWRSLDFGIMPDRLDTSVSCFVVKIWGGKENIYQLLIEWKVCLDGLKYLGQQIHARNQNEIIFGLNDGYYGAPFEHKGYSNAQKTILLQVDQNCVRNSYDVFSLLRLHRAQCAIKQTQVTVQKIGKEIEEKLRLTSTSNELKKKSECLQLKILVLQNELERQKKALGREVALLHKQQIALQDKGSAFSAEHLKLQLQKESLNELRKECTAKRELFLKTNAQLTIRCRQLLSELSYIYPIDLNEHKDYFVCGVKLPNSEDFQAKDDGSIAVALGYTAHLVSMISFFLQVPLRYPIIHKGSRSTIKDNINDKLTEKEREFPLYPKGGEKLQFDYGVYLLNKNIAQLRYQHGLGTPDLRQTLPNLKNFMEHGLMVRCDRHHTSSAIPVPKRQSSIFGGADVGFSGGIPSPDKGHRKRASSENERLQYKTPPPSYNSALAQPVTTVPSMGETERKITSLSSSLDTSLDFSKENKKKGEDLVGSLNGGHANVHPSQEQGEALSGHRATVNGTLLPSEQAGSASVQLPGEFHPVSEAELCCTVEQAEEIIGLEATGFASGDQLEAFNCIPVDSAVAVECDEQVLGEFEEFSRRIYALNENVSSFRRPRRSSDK
UniProt P45880: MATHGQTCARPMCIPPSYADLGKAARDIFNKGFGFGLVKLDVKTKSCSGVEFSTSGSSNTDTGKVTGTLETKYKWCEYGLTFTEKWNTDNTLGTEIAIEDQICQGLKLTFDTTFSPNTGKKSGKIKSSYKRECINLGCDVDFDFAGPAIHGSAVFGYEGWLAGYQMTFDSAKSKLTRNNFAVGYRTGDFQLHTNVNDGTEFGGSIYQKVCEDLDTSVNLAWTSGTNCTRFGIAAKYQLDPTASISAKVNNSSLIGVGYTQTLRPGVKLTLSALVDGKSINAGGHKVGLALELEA
UniProt Q9H9C1: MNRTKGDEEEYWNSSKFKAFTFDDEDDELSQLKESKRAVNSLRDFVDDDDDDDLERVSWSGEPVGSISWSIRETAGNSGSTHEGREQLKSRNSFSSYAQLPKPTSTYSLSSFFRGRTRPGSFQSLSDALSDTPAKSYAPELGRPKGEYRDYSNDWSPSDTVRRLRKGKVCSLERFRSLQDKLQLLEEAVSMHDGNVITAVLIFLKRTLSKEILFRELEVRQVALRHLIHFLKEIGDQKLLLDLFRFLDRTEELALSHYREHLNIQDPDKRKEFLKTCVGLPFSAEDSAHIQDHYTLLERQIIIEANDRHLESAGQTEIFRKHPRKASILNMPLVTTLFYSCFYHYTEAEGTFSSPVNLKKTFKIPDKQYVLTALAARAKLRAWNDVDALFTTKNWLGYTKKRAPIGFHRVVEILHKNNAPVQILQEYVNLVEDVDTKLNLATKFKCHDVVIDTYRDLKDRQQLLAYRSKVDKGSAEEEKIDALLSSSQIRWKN
UniProt Q08AM6: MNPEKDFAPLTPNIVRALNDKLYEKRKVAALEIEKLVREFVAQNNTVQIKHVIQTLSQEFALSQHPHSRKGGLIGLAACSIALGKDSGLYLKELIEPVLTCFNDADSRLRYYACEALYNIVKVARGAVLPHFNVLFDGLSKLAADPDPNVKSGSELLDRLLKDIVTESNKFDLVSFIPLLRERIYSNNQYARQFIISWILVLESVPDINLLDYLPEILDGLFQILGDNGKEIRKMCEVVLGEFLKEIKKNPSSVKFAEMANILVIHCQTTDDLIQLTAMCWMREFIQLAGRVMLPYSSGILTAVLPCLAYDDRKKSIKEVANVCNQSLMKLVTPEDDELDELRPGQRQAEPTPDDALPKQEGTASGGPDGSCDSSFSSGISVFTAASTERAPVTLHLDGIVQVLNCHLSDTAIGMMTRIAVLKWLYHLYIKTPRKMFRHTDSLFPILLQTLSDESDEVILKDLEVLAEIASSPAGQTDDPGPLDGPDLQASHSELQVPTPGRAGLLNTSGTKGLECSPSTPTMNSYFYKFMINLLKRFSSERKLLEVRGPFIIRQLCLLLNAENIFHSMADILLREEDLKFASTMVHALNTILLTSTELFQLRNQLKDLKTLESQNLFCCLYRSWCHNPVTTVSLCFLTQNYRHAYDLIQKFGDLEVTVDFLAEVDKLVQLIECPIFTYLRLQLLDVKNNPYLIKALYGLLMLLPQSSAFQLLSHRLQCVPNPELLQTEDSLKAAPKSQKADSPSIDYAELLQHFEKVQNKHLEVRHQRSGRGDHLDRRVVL
UniProt Q9BRT2: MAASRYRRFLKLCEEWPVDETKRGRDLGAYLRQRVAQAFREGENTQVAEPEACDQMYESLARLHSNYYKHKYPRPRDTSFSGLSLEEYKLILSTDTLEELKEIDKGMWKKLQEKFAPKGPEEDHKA
UniProt Q8IZJ1, whole entry, looked up: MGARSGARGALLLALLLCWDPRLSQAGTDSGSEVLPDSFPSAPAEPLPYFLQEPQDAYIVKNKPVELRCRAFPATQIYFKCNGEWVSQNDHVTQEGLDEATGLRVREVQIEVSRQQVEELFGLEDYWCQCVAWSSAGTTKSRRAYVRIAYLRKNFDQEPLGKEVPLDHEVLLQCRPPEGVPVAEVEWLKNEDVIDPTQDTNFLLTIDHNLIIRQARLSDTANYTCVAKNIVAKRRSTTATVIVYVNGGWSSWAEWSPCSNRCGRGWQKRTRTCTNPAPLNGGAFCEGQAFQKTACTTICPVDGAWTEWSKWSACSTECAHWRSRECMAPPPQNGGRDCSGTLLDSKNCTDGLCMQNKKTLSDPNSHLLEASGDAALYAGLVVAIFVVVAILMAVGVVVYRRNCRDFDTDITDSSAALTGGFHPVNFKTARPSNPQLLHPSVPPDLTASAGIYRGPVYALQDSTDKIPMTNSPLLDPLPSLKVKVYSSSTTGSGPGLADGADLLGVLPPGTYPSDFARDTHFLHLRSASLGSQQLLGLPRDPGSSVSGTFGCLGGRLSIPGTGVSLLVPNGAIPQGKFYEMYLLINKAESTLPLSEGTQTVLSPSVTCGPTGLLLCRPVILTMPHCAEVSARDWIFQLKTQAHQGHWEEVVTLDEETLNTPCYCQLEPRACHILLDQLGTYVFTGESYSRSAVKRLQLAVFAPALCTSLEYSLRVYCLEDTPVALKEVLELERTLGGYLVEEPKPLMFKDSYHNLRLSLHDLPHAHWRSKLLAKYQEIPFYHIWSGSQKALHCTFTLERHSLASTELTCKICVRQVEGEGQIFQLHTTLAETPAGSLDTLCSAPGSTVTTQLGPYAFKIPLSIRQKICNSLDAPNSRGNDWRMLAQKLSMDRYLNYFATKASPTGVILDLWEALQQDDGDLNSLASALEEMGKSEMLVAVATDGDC
UniProt P06132: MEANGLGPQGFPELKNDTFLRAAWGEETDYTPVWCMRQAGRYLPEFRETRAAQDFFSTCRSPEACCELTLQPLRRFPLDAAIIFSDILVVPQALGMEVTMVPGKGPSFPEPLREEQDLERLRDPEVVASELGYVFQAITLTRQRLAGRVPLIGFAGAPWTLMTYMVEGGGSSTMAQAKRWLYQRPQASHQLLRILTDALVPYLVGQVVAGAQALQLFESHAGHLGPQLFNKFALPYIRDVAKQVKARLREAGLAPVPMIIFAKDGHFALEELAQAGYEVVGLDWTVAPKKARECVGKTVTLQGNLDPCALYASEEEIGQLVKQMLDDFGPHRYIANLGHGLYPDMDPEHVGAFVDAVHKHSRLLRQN
UniProt Q96BW1: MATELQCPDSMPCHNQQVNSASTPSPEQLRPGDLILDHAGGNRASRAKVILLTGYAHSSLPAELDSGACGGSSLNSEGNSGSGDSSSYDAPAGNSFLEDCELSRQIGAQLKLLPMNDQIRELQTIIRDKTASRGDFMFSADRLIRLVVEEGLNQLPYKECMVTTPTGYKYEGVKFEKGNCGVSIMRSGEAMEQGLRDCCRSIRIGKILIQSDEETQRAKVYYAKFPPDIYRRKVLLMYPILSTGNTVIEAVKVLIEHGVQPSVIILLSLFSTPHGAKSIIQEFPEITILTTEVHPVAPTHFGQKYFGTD

Key:
Assay in all cases: log2 fold change, soluble protein after heating vs DMSO (PISA); higher = thermal stabilisation; K562 lysate, 10 uM; active = over 0.2 and 3.5 SD of the protein, either way, in both replicates (recomputed)
vemurafenib = compound: CCCS(=O)(=O)Nc1ccc(F)c(C(=O)c2c[nH]c3ncc(-c4ccc(Cl)cc4)cc23)c1F [vemurafenib]
Method in brief: (§1)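 Following dounce homogenisation of K562 pellets in PBS pH 7.4 with 1 mM MgCl2, crude extract at 1 mg/mL protein was incubated for 30 min with 10 μM compound. Aliquots were then heated for 3 min over 48°C-58°C and pooled, NP-40 was added to 0.5% at 4°C, and soluble protein was recovered as the supernatant at 21,000xg for 90 min. Channel-sum-equalised TMTpro 16plex LC-MS/MS quantified this protein. Each value, from duplicates, is a log-two fold change in thermal stability relative to solvent controls.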

[1] = compound: CCCS(=O)(=O)Nc1ccc(F)c(C(=O)c2c[nH]c3ncc(Cl)cc23)c1F
Method in brief: as §1

barasertib = compound: CCN(CCCOc1ccc2c(Nc3cc(CC(=O)Nc4cccc(F)c4)[nH]n3)ncnc2c1)CCOP(=O)(O)O [barasertib]
Method in brief: as §1

[2] = compound: CC[C@@H]1C(=O)N(C)c2cnc(Nc3ccc(C(=O)NC4CCN(C)CC4)cc3OC)nc2N1C1CCCC1
Method in brief: as §1

volasertib = compound: CC[C@@H]1C(=O)N(C)c2cnc(Nc3ccc(C(=O)N[C@H]4CC[C@H](N5CCN(CC6CC6)CC5)CC4)cc3OC)nc2N1C(C)C [volasertib]
Method in brief: as §1

[3] = compound: CCn1c(C(=O)N(C2CC2)C2CC2)cc2c3c(ncn3C)c(Nc3cc(C)n(C)n3)nc21
Method in brief: as §1

[4] = compound: CCn1cc(-c2ccnc3[nH]c(-c4cccc(CN(C)C)c4)cc23)c(-c2ccc(NC(=O)N(C)C)cc2)n1
Method in brief: as §1

[5] = compound: CN1CCC(CNc2ccc3ncc(-c4cccc(OC(F)(F)F)c4)n3n2)CC1
Method in brief: as §1

saracatinib = compound: CN1CCN(CCOc2cc(OC3CCOCC3)c3c(Nc4c(Cl)ccc5c4OCO5)ncnc3c2)CC1 [saracatinib]
Method in brief: as §1

sotrastaurin = compound: CN1CCN(c2nc(C3=C(c4c[nH]c5ccccc45)C(=O)NC3=O)c3ccccc3n2)CC1 [sotrastaurin]
Method in brief: as §1

alvocidib = compound: CN1CC[C@H](c2c(O)cc(O)c3c(=O)cc(-c4ccccc4Cl)oc23)[C@H](O)C1 [alvocidib]
Method in brief: as §1

Tubastatin A = compound: CN1CCc2c(c3ccccc3n2Cc2ccc(C(=O)NO)cc2)C1 [Tubastatin A]
Method in brief: as §1

[6] = compound: CNC(=O)C1=CC=CC=C1NC2=NC(=NC=C2Cl)NC3=C(C=C(C=C3)N4CCOCC4)OC
Method in brief: as §1

defactinib = compound: CNC(=O)c1ccc(Nc2ncc(C(F)(F)F)c(NCc3nccnc3N(C)S(C)(=O)=O)n2)cc1 [defactinib]
Method in brief: as §1

[7] = compound: CNc1nc(-c2ccc3c(N)n[nH]c3c2)cc(N2C[C@@H](C(=O)NC3CCCCC3)CC[C@H]2C)n1
Method in brief: as §1

encorafenib = compound: COC(=O)N[C@@H](C)CNc1nccc(-c2cn(C(C)C)nc2-c2cc(Cl)cc(NS(C)(=O)=O)c2F)n1 [encorafenib]
Method in brief: as §1

[8] = compound: COC(=O)[C@H](CCSC)NC(=O)C1=C(C=C(C=C1)NC[C@H](CS)N)C2=CC=CC=C2
Method in brief: as §1

alisertib = compound: COc1cc(Nc2ncc3c(n2)-c2ccc(Cl)cc2C(c2c(F)cccc2OC)=NC3)ccc1C(=O)O [alisertib]
Method in brief: as §1

[9] = compound: COc1cc2nc(-c3cc(F)ccc3O)nc(N[C@@H]3CNC[C@H]3C(C)(C)O)c2cc1OC
Method in brief: as §1

gefitinib = compound: COc1cc2ncnc(Nc3ccc(F)c(Cl)c3)c2cc1OCCCN1CCOCC1 [gefitinib]
Method in brief: as §1

Measured: log2 fold change

UQCRFS1 (UniProt P47985)
inactive: vemurafenib 0.001 | [1] 0.008 | barasertib 0.001 | [2] 0.022 | volasertib 0.026 | [3] -0.002 | [4] 0.166 | [5] -0.074 | saracatinib -0.019 | sotrastaurin -0.031 | alvocidib 0.005 | Tubastatin A 0.023 | [6] -0.011 | defactinib -0.021 | [7] 0.033 | encorafenib -0.01 | [8] -0.081 | alisertib 0.001 | [9] -0.015 | gefitinib -0.006

USP48 isoform 8 (UniProt Q86UV5)
inactive: vemurafenib -0.002 | [1] 0.036 | barasertib 0.002 | [2] -0.013 | volasertib -0.043 | [3] 0.007 | [4] -0.011 | [5] -0.032 | saracatinib -0.004 | sotrastaurin 0.031 | alvocidib 0.006 | Tubastatin A -0.119 | [6] 0.019 | defactinib -0.012 | [7] 0.011 | encorafenib -0.003 | [8] 0.14 | alisertib -0.016 | [9] 0.003 | gefitinib -0.018

USP13 (UniProt Q92995)
inactive: vemurafenib -0.025 | [1] -0.023 | barasertib -0.004 | [2] 0.024 | volasertib 0.018 | [3] -0.003 | [4] 0.006 | [5] 0.047 | saracatinib 0.021 | sotrastaurin -0.023 | alvocidib 0.008 | Tubastatin A 0.085 | [6] 0.016 | defactinib 0.029 | [7] 0.087 | encorafenib 0.002 | [8] -0.02 | alisertib -0.047 | [9] -0.025 | gefitinib -0.004

UEVLD (UniProt Q8IX04)
inactive: vemurafenib 0.008 | [1] -0.033 | barasertib 0.012 | [2] -0.007 | volasertib -0.002 | [3] 0.044 | [4] 0.014 | [5] 0.042 | saracatinib 0.036 | sotrastaurin 0.004 | alvocidib 0.021 | Tubastatin A 0.022 | [6] -0.04 | defactinib -0.013 | [7] -0.036 | encorafenib 0.06 | [8] -0.055 | alisertib -0.033 | [9] 0.042 | gefitinib -0.089

VIM (UniProt P08670)
inactive: vemurafenib -0.019 | [1] -0.009 | barasertib 0.032 | [2] -0.044 | volasertib 0.006 | [3] 0.021 | [4] 0.025 | [5] -0.032 | saracatinib 0.01 | sotrastaurin 0.008 | alvocidib 0.045 | Tubastatin A 0.026 | [6] -0.001 | defactinib -0.014 | [7] -0.033 | encorafenib 0.005 | [8] -0.117 | alisertib -0.011 | [9] 0.015 | gefitinib 0.004

USP48 (UniProt Q86UV5)
active: [4] -0.821
inactive: vemurafenib 0.043 | [1] 0.074 | barasertib -0.024 | [2] 0.047 | volasertib -0.102 | [3] -0.057 | [5] 0.146 | saracatinib -0.021 | sotrastaurin -0.12 | alvocidib -0.193 | Tubastatin A -0.069 | [6] 0.123 | defactinib 0.024 | [7] 0.054 | encorafenib -0.016 | [8] 0.018 | alisertib -0.015 | [9] 0.09 | gefitinib -0.069

UVRAG (UniProt Q9P2Y5)
inactive: vemurafenib -0.014 | [1] 0.015 | barasertib 0.042 | [2] 0.018 | volasertib -0.009 | [3] 0.018 | [4] -0.02 | [5] 0.025 | saracatinib -0.032 | sotrastaurin -0.007 | alvocidib 0.017 | Tubastatin A -0.008 | [6] 0.026 | defactinib 0.039 | [7] -0.035 | encorafenib 0.035 | [8] -0.077 | alisertib 0.029 | [9] -0.008 | gefitinib 0.051

USP47 isoform 4 (UniProt Q96K76)
inactive: vemurafenib -0.02 | [1] 0.014 | barasertib 0.006 | [2] -0.049 | volasertib -0.016 | [3] 0.022 | [4] 0.022 | [5] -0.032 | saracatinib -0.005 | sotrastaurin 0.012 | alvocidib 0.022 | Tubastatin A -0.057 | [6] 0.006 | defactinib 0.006 | [7] 0.015 | encorafenib 0.011 | [8] 0.044 | alisertib 0.003 | [9] 0.002 | gefitinib 0.002

VDAC2 isoform 2 (UniProt P45880)
inactive: vemurafenib 0.02 | [1] -0.006 | barasertib -0.02 | [2] 0.034 | volasertib 0.054 | [3] -0.03 | [4] 0.006 | [5] 0.002 | saracatinib 0 | sotrastaurin -0.023 | alvocidib 0.007 | Tubastatin A 0.098 | [6] -0.001 | defactinib -0.004 | [7] 0.045 | encorafenib -0.023 | [8] -0.047 | alisertib 0.026 | [9] -0.014 | gefitinib -0.018

VIPAS39 (UniProt Q9H9C1)
inactive: vemurafenib -0.005 | [1] -0.007 | barasertib 0.04 | [2] 0.187 | volasertib -0.036 | [3] -0.019 | [4] -0.015 | [5] 0.063 | saracatinib 0.046 | sotrastaurin 0.04 | alvocidib -0.079 | Tubastatin A -0.066 | [6] 0.161 | defactinib 0.024 | [7] 0.306 | encorafenib 0.085 | [8] 0.044 | alisertib -0.039 | [9] 0.008 | gefitinib 0.077

VAC14 (UniProt Q08AM6)
inactive: vemurafenib -0.002 | [1] 0.008 | barasertib 0.021 | [2] -0.021 | volasertib -0.02 | [3] 0.013 | [4] -0.032 | [5] 0.007 | saracatinib 0.007 | sotrastaurin 0 | alvocidib 0 | Tubastatin A -0.036 | [6] 0.022 | defactinib 0.007 | [7] 0.005 | encorafenib 0.04 | [8] -0.051 | alisertib 0.008 | [9] 0.006 | gefitinib 0.003

USP24 (UniProt Q9UPU5)
inactive: vemurafenib 0.003 | [1] 0.026 | barasertib 0.027 | [2] -0.081 | volasertib -0.05 | [3] 0.065 | [4] 0.032 | [5] -0.031 | saracatinib 0.026 | sotrastaurin 0.007 | alvocidib 0.026 | Tubastatin A -0.093 | [6] -0.003 | defactinib -0.006 | [7] -0.076 | encorafenib 0.01 | [8] -0.002 | alisertib -0.011 | [9] 0.013 | gefitinib 0.061

UQCC2 (UniProt Q9BRT2)
active: [4] 0.287
inactive: vemurafenib -0.074 | [1] 0.005 | barasertib -0.039 | [2] -0.013 | volasertib 0.039 | [3] -0.039 | [5] -0.086 | saracatinib -0.04 | sotrastaurin -0.083 | alvocidib 0.079 | Tubastatin A 0.05 | [6] -0.027 | defactinib 0 | [7] 0.006 | encorafenib 0.021 | [8] -0.025 | alisertib 0.029 | [9] 0.017 | gefitinib -0.059

UNC5B (UniProt Q8IZJ1)
inactive: vemurafenib 0.101 | [1] 0.082 | barasertib 0.067 | [2] 0.042 | volasertib -0.288 | [3] -0.031 | [4] 0.217 | [5] -0.141 | saracatinib 0.046 | sotrastaurin 0.023 | alvocidib 0.036 | Tubastatin A 0.005 | [6] 0 | defactinib -0.01 | [7] -0.013 | encorafenib 0.045 | [8] -0.023 | alisertib 0.06 | [9] -0.068 | gefitinib -0.103

Reprinted at random: two records from the list
UEVLD (UniProt Q8IX04)
inactive: vemurafenib 0.008 | [1] -0.033 | barasertib 0.012 | [2] -0.007 | volasertib -0.002 | [3] 0.044 | [4] 0.014 | [5] 0.042 | saracatinib 0.036 | sotrastaurin 0.004 | alvocidib 0.021 | Tubastatin A 0.022 | [6] -0.04 | defactinib -0.013 | [7] -0.036 | encorafenib 0.06 | [8] -0.055 | alisertib -0.033 | [9] 0.042 | gefitinib -0.089

UVRAG (UniProt Q9P2Y5)
inactive: vemurafenib -0.014 | [1] 0.015 | barasertib 0.042 | [2] 0.018 | volasertib -0.009 | [3] 0.018 | [4] -0.02 | [5] 0.025 | saracatinib -0.032 | sotrastaurin -0.007 | alvocidib 0.017 | Tubastatin A -0.008 | [6] 0.026 | defactinib 0.039 | [7] -0.035 | encorafenib 0.035 | [8] -0.077 | alisertib 0.029 | [9] -0.008 | gefitinib 0.051

More entries.

UROD (UniProt P06132)
inactive: vemurafenib 0.021 | [1] 0.03 | barasertib -0.04 | [2] 0.014 | volasertib 0.012 | [3] 0.007 | [4] -0.019 | [5] 0.029 | saracatinib -0.016 | sotrastaurin -0.026 | alvocidib -0.021 | Tubastatin A 0.031 | [6] 0.03 | defactinib 0 | [7] -0.016 | encorafenib -0.013 | [8] -0.06 | alisertib 0.04 | [9] -0.024 | gefitinib -0.064

UPRT (UniProt Q96BW1)
inactive: vemurafenib -0.063 | [1] 0.125 | barasertib -0.004 | [2] 0.109 | volasertib 0.063 | [3] -0.027 | [4] 0.022 | [5] 0.05 | saracatinib 0.026 | sotrastaurin -0.073 | alvocidib -0.016 | Tubastatin A -0.01 | [6] -0.022 | defactinib 0.068 | [7] 0.023 | encorafenib 0.043 | [8] 0.063 | alisertib -0.126 | [9] -0.075 | gefitinib -0.073
